Several values for one entry are separate records, joined by “and”; a condition that tells them apart may be missing. Identical values can stand only once. The list shows a part of the results. These are further read-outs of the screen, such as a control signal, another cell line or another target. No call is given for them. The list favours compounds with an active or inconclusive main result. For some assays here: The note in brackets gives the kind of curve behind each potency; many fits are weak.

By AC50 is commonly meant the concentration at which the activity in the assay is half-maximal.

The first assay is described as follows: qHTS assay for small molecule antagonists of vitamin D receptor signaling (AID 588541). The settings on record: HEK293T VDR-UAS-bla, beta-lactamase ratio, antagonist mode; measured here: W460 blue channel (cell viability).
For `O=c1oc2ccccc2c(O)c1C(CC(O)c1ccc(-c2ccc(Br)cc2)cc1)c1ccccc1` (centres undefined), the AC50 is 12.6 µM [rising, partial curve]. For `CC(=O)[C@H]1[C@H](C#N)C[C@H]2[C@@H]3CC=C4C[C@@H](O)CC[C@]4(C)[C@H]3CC[C@@]21C`, the AC50 is 31.6 µM [rising, partial curve, poor fit] and 35.5 µM [rising, partial curve].

In the case of `COC(=O)C(C)Oc1ccc(Oc2ccc(Cl)cc2Cl)cc1` (centres undefined), the AC50 is 15.8 µM [rising, full curve, poor fit]. For the compound `CCc1nn(C)c(C(=O)NCc2ccc(C(C)(C)C)cc2)c1Cl`, the AC50 is 35.5 µM [falling, single point]. On the same count and under the same terms, the result for `C[C@]12CC[C@H]3[C@@H](CCC4=CC(=O)CC[C@@]43C)[C@@H]1CC[C@@H]2O` reads 14.1 µM [rising, full curve, poor fit]; that for `COP(=O)(OC)SCn1c(=O)oc2cc(Cl)cnc21`, 44.7 µM [falling, partial curve, poor fit]; that for `Clc1ccc(C(c2ccccc2Cl)C(Cl)(Cl)Cl)cc1` (centres undefined), 14.1 µM [rising, single point].

On to `Clc1ccc([C@@]2(Cn3cncn3)C[C@H](Br)CO2)c(Cl)c1`, for which the AC50 is 1 µM [rising, single point]. Consider `CCCCNC(=O)OCC#CI`, for which the AC50 is 50.1 µM [falling, single point]. The same measure, in the same setting: next, `O=C/C(Cl)=C(/Cl)C(=O)O`: 44.7 µM [falling, partial curve].

The next assay can be described thus: qHTS assay for small molecule agonists of retinoid X receptor alpha signaling (AID 588544). The conditions noted are these: HEK293T RXRa-UAS-bla, beta-lactamase reporter, 18 h; 530 nm emission.
On to `O=c1oc2ccccc2c(O)c1C(CC(O)c1ccc(-c2ccc(Br)cc2)cc1)c1ccccc1` (centres undefined), for which the max response is 57.4%.

In the case of `c1ccccc1`, the max response was -17.8%.

As for `CCOc1cc(C=O)ccc1O`, the max response was -14.4%.

With `COC1=CC(=O)O[C@@H](/C=C/c2ccccc2)C1`, the max response was found to be 34.3%. Same read-out and setting: the result for `O=P(O)(O)CCCl` reads -21.8% and -20.2%; that for `O=C(O)CCCOc1ccc(Cl)cc1Cl`, 32.1%; that for `COCCOCCO`, -27%. Still for that read-out and setting: next, `CCOP(=S)(OCC)OC(Cl)C(Cl)(Cl)Cl` (centres undefined): -0.842%.

Regarding `C[Si](Cn1cncn1)(c1ccc(F)cc1)c1ccc(F)cc1`, the max response was 2.23%. Still for that read-out and setting: next, `CC(=O)[C@H]1[C@H](C#N)C[C@H]2[C@@H]3CC=C4C[C@@H](O)CC[C@]4(C)[C@H]3CC[C@@]21C`: 53.4% and 36.1%.

Turning to `CC(C)CC(C)Nc1ccc(Nc2ccccc2)cc1` (centres undefined), the max response was 15.7%.

As for `CC(C)Oc1cccc(NC(=O)c2ccccc2C(F)(F)F)c1`, the max response was found to be 32.6%. For the compound `C=CC(N)=O`, the max response was -4.89%.

On to `CC(C)N(C(=O)SCC(Cl)=C(Cl)Cl)C(C)C`, for which the max response was -16.8%. Consider `CCc1nn(C)c(C(=O)NCc2ccc(C(C)(C)C)cc2)c1Cl`, for which the max response is 34%.

With `CCOP(=O)(NC(C)C)Oc1ccc(S(C)(=O)=O)c(C)c1` (centres undefined), the max response is -8.07%. Still for that read-out and setting: the result for `Oc1c(Br)cc(Br)cc1Br` reads 13.5%; that for `Nc1ccc([N+](=O)[O-])cc1N`, 9.87%. Still for that read-out and setting: the result for `ClC1=C(Cl)C2(Cl)C3C4C=CC(C4)C3C1(Cl)C2(Cl)Cl` (centres undefined) reads 38.8%; that for `Clc1ccc(C(c2ccccc2Cl)C(Cl)(Cl)Cl)cc1` (centres undefined), 33.1% and 29.6%; that for `NNC(N)=S`, 25.4%. Still for that read-out and setting: next, `C=C1CC[C@H](O)C/C1=C/C=C1\CCC[C@]2(C)[C@@H]([C@H](C)CCCC(C)C)CC[C@@H]12`: 47.2%; `O=C(Nc1ccccc1)Nc1ccnc(Cl)c1`: 58.3%; `COP(=S)(OC)SCN1C(=O)c2ccccc2C1=O`: 20.8%. As for `Oc1ccc(Cl)cc1Cl`, the max response is -10.6%.

For the compound `OC[P+](CO)(CO)CO`, the max response was 14.1% and 15.5%. On the same count and under the same terms, next, `CC(C)(C)C(=O)C1C(=O)c2ccccc2C1=O`: -1.87%. As for `CCOP(=O)(SC(C)CC)N1CCSC1=O` (centres undefined), the max response came out at 4.81%. Still for that read-out and setting: next, `O=[N+]([O-])c1ccc(Oc2ccc(C(F)(F)F)cc2[N+](=O)[O-])cc1`: -8.7%. Consider `Clc1nc(Cl)nc(Nc2ccccc2Cl)n1`, for which the max response stood at 4.82%. The same measure, in the same setting: next, `CCCCNC(=O)OCC#CI`: 4.61%. The same measure, in the same setting: the result for `NC1CCC(CC2CCC(N)CC2)CC1` (centres undefined) reads -1.96%; that for `ClC(Cl)=C(c1ccc(Cl)cc1)c1ccc(Cl)cc1`, 6.14% and 13.4%.

Turning to `O=C/C(Cl)=C(/Cl)C(=O)O`, the max response was 15.1%.

The values above are taken from PubChem BioAssay (NCATS).
